From publication PMC7069097

Sequences of proteins named here, by UniProt entry; tags and fusion partners are left off. A change or cut given only in a name is not applied to a line headed by its entry.
UniProt Q8N4S7: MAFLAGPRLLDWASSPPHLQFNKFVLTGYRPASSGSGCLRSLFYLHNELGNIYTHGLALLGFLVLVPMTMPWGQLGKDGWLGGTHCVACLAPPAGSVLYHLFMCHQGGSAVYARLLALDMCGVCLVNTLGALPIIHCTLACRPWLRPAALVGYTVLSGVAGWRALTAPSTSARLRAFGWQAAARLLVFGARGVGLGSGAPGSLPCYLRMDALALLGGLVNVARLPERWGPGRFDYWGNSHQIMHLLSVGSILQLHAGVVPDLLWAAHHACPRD
UniProt Q16236: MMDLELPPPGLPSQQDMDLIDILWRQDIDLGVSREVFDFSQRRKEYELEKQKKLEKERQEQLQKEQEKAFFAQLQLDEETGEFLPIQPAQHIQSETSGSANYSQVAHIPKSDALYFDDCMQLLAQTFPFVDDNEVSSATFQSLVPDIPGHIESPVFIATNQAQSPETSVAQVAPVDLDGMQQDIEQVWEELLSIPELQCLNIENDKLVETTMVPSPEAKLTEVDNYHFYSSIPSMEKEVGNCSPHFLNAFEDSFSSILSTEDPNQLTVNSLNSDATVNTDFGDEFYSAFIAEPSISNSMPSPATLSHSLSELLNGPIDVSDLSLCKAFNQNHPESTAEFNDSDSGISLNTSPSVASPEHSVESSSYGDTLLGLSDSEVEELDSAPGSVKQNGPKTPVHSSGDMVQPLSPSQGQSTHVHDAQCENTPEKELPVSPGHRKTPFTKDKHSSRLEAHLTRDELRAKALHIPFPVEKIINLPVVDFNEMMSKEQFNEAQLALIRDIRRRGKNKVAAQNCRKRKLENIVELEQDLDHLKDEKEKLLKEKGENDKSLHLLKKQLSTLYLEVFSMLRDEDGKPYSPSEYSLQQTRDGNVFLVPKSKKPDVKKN

Molecular target: GST-PAQR4 fusion protein (human) (UniProt Q8N4S7)
Experiment: pull-down; bacterially expressed, purified GST-PAQR4 (or GST) incubated with SPC-A1 cell lysates; western blot of endogenous proteins; only the target purified

In the case of “endogenous Nrf2 (from UniProt Q16236 1-605)”, the binding is reported as “binds”.

Results are given in words; binding and its absence hold for the method and conditions named. Binding seen in cells or lysates may run through a third protein. Binding calls can cover weak binding; strength is not graded here.
